Test results: article PMC11574253

Chains of the proteins cited; added tags and fusions are not shown.
UniProt Q13242: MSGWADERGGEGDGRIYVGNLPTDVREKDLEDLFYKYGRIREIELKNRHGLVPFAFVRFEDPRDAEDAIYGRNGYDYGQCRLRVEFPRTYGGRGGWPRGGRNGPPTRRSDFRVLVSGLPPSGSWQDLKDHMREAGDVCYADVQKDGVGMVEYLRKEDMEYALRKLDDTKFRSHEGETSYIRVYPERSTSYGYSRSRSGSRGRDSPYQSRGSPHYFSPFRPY
UniProt Q9BQ67: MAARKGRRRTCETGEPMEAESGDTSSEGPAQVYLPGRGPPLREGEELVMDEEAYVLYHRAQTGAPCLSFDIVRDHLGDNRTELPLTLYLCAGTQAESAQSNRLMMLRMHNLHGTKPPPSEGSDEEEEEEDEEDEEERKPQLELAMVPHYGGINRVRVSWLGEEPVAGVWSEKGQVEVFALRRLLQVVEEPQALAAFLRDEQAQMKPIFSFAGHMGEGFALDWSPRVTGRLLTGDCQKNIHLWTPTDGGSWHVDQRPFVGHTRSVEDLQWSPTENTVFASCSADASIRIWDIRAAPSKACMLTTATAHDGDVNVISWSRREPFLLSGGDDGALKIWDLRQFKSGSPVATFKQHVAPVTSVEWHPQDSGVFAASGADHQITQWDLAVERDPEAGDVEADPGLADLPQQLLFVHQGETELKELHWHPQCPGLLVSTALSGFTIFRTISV

Biological target: T1, Flag-tagged human DVL3 (Dishevelled 3), wild type (human) (UniProt Q92997)
T1 sequence: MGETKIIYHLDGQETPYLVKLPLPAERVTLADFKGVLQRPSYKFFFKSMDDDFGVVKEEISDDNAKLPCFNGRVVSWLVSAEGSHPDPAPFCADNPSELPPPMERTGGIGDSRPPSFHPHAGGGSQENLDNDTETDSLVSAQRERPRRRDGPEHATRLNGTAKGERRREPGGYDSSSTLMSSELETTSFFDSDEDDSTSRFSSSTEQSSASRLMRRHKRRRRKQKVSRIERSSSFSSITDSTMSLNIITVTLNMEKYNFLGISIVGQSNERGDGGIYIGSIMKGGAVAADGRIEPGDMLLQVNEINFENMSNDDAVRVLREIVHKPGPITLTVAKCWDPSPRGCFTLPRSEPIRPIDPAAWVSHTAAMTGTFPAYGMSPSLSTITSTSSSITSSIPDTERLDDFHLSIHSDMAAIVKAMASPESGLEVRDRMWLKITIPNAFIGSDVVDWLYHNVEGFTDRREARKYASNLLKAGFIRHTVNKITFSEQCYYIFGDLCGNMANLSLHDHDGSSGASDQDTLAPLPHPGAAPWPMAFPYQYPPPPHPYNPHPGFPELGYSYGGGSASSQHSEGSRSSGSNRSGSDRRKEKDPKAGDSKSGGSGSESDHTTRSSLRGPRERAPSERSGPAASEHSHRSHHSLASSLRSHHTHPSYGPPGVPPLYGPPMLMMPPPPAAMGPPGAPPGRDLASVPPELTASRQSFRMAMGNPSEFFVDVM
Test: affinity purification with mass spectrometry; pulldown (immunopurification) of overexpressed DVL3 WT or E710A/D714A in the presence and absence of TTLL11; LC-MS/MS, three biological replicates; LIMMA, then REPRINT with CRAPOME and SAINTexpress

| binding | Substance |
| --- | --- |
| binds | SRSF9 (from UniProt Q13242 1-221) |
| binds | GRWD1 (from UniProt Q9BQ67 1-446) |

Results are given in words; binding and its absence hold for the method and conditions named. Binding seen in cells or lysates may run through a third protein. These calls come from enrichment with a bait or labelling near it, and not all partners need be listed. Tags and fused reporters may be left off the sequences shown.
